In PubChem BioAssay AID1259340 (Broad Institute, 2017):
Only results without a clear call are listed here; the source files them as inconclusive.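 Rule for the calls: active = AC50 no more than ten times the top concentration tested; inconclusive = flat fit with inhibition between 30% and 70%, or unusable fit; inactive = AC50 beyond ten times the top concentration.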

The chains behind the UniProt entries cited, without tags or fusion partners. Where a name states a change or a piece, a line headed by the entry shows the natural chain unless it says otherwise.
UniProt Q9H257: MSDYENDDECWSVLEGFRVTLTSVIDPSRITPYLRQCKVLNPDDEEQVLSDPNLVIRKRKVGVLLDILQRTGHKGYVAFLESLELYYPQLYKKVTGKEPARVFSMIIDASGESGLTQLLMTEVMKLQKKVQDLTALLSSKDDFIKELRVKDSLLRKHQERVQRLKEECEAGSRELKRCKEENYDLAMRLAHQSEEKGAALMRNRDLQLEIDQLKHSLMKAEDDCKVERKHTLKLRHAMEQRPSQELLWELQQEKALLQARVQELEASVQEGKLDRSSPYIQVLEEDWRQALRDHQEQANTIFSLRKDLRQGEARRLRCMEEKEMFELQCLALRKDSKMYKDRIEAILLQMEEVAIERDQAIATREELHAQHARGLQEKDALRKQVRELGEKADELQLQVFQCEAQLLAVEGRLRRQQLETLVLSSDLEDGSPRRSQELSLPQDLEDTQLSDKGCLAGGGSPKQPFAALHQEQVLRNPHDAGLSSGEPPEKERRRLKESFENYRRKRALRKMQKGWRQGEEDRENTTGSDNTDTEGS
UniProt O95999: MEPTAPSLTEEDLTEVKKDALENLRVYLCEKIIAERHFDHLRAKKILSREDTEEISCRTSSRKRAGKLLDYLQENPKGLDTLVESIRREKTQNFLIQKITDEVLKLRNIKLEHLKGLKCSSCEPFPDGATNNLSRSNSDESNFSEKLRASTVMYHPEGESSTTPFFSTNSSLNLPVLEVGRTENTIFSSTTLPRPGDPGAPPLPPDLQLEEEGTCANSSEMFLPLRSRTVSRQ

Molecular target: Caspase recruitment domain-containing protein 9 (Homo sapiens) + B-cell lymphoma/leukemia 10 (Homo sapiens) (UniProt Q9H257+O95999)
Test: disruptors of CARD9-BCL10 binding, dose response, selectivity assay for CARD9-TRIM62 disruptor project, cell lysate, HEK293FT lysates, Luminex bead ELISA (AID 1259340)
Conditions: at 80 µM (top of the series)

Nc1ccc(-c2cccc(CN3CCCC3)c2)cc1
activity change, negative = inhibition: inconclusive: -9.21%
